PubChem BioAssay AID602196 | INSERM – 2012

- Assay: 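Modifiers of cisplatin sensitivity in A549 cells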
- System: human A549 lung cancer cells
- Reagent: siRNA pair against human genes
- Duration: 48 h transfection before cisplatin; time from cisplatin to read-out not stated
- Conditions: cisplatin at a dose killing half of control-siRNA cells; exact dose and duration not given
- Detection: 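Shift in cisplatin death relative to control siRNA, from -50 (all cells die) to +50 (no cells die); siRNAs harmful on their own scored 0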
- Scale: two-siRNA summed score (-2 to +2): higher = both siRNAs protect from cisplatin killing; -2 means both sensitise
- Active means: 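siRNAs harmful alone (LDH or WST-1) get 0; others get +1 for less and -1 for more cisplatin killing; genes are active when the two siRNAs give the same sign, summing to ±2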
- Meaning of the calls: active = both siRNAs shift cisplatin killing the same way; inactive = no consistent shift, or siRNA harmful alone
This is a random part of about 23,000 deposited reagents. Over the whole deposit, 455 (2%) are marked active. 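Active includes both protection and sensitisation; some change values fall well beyond the stated -50 to +50 range.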 Unmarked entries are inactive. The numbers tell different reagents against one gene apart. Not all columns of the deposit are shown. Not stated in the record: the amount of reagent.

two-siRNA summed score (-2 to +2), by gene and reagent
OR9Q1 (GeneID 219956): #1 0
LOC388006: #1 0
LOC392347: #1 0
SLC16A8 (GeneID 23539): #1 1
LOC440365: #1 -1
GADD45B (GeneID 4616): #1 0
WNT9B (GeneID 7484): #1 -1
LETMD1 (GeneID 25875): #1 -1
MS4A7 (GeneID 58475): #1 -1
P3H3 (GeneID 10536): #1 1
ZNF17 (GeneID 7565): #1 1
HOXA5 (GeneID 3202): #1 0
UBR4 (GeneID 23352): #1 0
GABRE (GeneID 2564): #1 0
UQCRFS1 (GeneID 7386): #1 1
P3H1 (GeneID 64175): #1 0
PGAM5 (GeneID 192111): #1 0
NEXN-AS1 (GeneID 374987): #1 0
LOC388504: #1 0
FRMPD1 (GeneID 22844): #1 0
LINC03025 (GeneID 440896): #1 0
OLIG2 (GeneID 10215): #1 0
MS4A3 (GeneID 932): #1 0
SGO1 (GeneID 151648): #1 -1
SNX6 (GeneID 58533): #1 0
SH2B1 (GeneID 25970): #1 0
KRT80 (GeneID 144501): #1 0
CEP350 (GeneID 9857): #1 0
LOC285735: #1 0
MIDEAS (GeneID 91748): #1 0
LOC441012: #1 0
ZBTB18 (GeneID 10472): #1 0
GEN1 (GeneID 348654): #1 0
LOC285900: #1 1
TTC23 (GeneID 64927): #1 0; #2 0
RCL1 (GeneID 10171): #1 2 (active)
WNK1 (GeneID 65125): #1 0; #2 1
FLJ36980: #1 0
FCGR2B (GeneID 2213): #1 1
LOC390423: #1 0
TCAIM (GeneID 285343): #1 1
LOC284106: #1 1
EFHD2 (GeneID 79180): #1 0
LINC00642 (GeneID 400238): #1 0
LINC01140 (GeneID 339524): #1 1
EZHIP (GeneID 340602): #1 1
COMMD9 (GeneID 29099): #1 0; #2 1
KMT5C (GeneID 84787): #1 0
CTDSPL (GeneID 10217): #1 0
LOC390084: #1 0
IER5L (GeneID 389792): #1 0
IFNK (GeneID 56832): #1 0
CNPPD1 (GeneID 27013): #1 0
STX16 (GeneID 8675): #1 0

8 of these entries, set out differently:
{"gene":"FLJ36980","reagent no.":1,"two-siRNA summed score (-2 to +2)":0}
{"gene":"FCGR2B (GeneID 2213)","reagent no.":1,"two-siRNA summed score (-2 to +2)":1}
{"gene":"LOC390423","reagent no.":1,"two-siRNA summed score (-2 to +2)":0}
{"gene":"TCAIM (GeneID 285343)","reagent no.":1,"two-siRNA summed score (-2 to +2)":1}
{"gene":"LOC284106","reagent no.":1,"two-siRNA summed score (-2 to +2)":1}
{"gene":"EFHD2 (GeneID 79180)","reagent no.":1,"two-siRNA summed score (-2 to +2)":0}
{"gene":"LINC00642 (GeneID 400238)","reagent no.":1,"two-siRNA summed score (-2 to +2)":0}
{"gene":"LINC01140 (GeneID 339524)","reagent no.":1,"two-siRNA summed score (-2 to +2)":1}
